Screen size: about 53,000 sequences; about 3,700 (7%) were called active.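 The calls were made as follows: active = gene knockdowns whose robust z-score for IL-1 alpha signal is at least 2 or at most -2, so actives lie on both sides; inactive = the rest.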 The list shows a part of the results.
assay: Components of the Cytosolic LPS Sensing Pathway: Gene Identification via Genome-wide siRNA Screen; settings: RAW264.7 macrophages, IL-1a HTRF, actives lie on both sides, screened at 100 nM (by protocol), cells primed 5 h with Pam3CSK4 first;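 also: robust z of the log signal after scaling to non-targeting control siRNA wells of the plate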
How it was run: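 Read-out: IL-1a HTRF on supernatant, divided by plate negative-control median ×100, log-transformed and converted to robust z-score. Cells were RAW264.7 given 100 nM siRNA, Pam3CSK4-primed 5 hours, then LipidA-transfected 24 hour.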

| Sequence | z-score |
| --- | --- |
| GGAUAUUAGUGUGGAGACUTT against Sptbn1 | inactive: 0.284 |
| GGGUGCACUGGCUAAUAUATT against H2-Ea | inactive: 1.13 |
| GGUCAGAGUACAGCUCCGUTT against Tpsab1 | inactive: -1.22 |
| GCAGCCUGUACAGUUCUAUTT against Gpr139 | inactive: -0.155 |
| GGGACACUGUGUCCCUUCUTT against Tmem189 | inactive: -0.0937 |
| GCACUUUCGUAGAUCACCATT against Bri3bp | inactive: 0.174 |
| GGUGAUACUCAGUUUAAGCTT against Pms2 | inactive: -1.02 |
| GGAGUGCGCUUGAAUAUGATT against Lamp1 | inactive: -1.48 |
| GCAAAUGAUACAGUGGAUUTT against Ctnnd1 | inactive: 0.0103 |
| CGAGAUCAAACCUGGCUUATT against Adarb1 | inactive: 1.26 |
| GCAUGCUGAUGGACUGUAATT against Rcc2 | inactive: 0.447 |
| GAGAGUAUCACCUUCAUUUTT against Kdf1 | inactive: -0.716 |
| GCGGCUCUUUAAGAUCCAGTT against Fbxw5 | inactive: 0.351 |
| GGUAUAUAACCACUCUGUCTT against Dot1l | inactive: -1.08 |
| GCGUGGUUUCUGAAUACAUTT against Nt5e | active: 6.67 |
| GGAGAAUGACAUCUUGAGCTT against D5Ertd579e | inactive: 0.438 |
| CCCAUUACGCAAAUUGUUCTT against Rin3 | active: -2.31 |
| GGAUUUUGCCUAAAAUACATT against Sephs1 | inactive: 0.179 |
| GGAUUGGUUCAUGACCUGATT against Trim52 | inactive: -0.814 |
| CGGCCUGUUAUAAACCUGCTT against 4933409K07Rik | inactive: -0.168 |
| GGUUCAUCGUUUCAAGUUUTT against Catsperb | inactive: 0.0531 |
| GCUACUAGUAUAUGUACUCTT against Psg28 | inactive: 1.58 |
| GGACAAGAAGAAAGAAAAGTT against Tmbim6 | inactive: -1.07 |
| GGUAGCUGUAGUUCUAACUTT against Tmem263 | inactive: 0.742 |
| GGUUUCUGCAUGAAAAUCATT against Irak4 | inactive: -1.78 |
| GGAAGAAUCUUCCUGUUAATT against Chic2 | inactive: -0.358 |
| GGGCCUUUUUAUCCAACUUTT against Mcts1 | inactive: 0.195 |

| Sequence | z-score |
| --- | --- |
| GGAGGAUUAUCACAAGUCCTT against Anxa6 | inactive: 0.886 |
| GGACUUAGCACCCUCCUAATT against Tnfsf15 | inactive: -0.762 |
| GGCAUAGAAGAGAUGACAGTT against Fabp7 | active: -2.18 |
| GCUCCCUGUUCUUCACCAUTT against Ifitm1 | inactive: 0.199 |
| GGACAUGCUUUCAAUGGAATT against Tshr | inactive: -0.0805 |
| GCCUUCAACAAAAAGUUCUTT against Olfr137 | inactive: -0.311 |
| GCUCAUCCAUUACGAGUUGTT against Dusp18 | inactive: 0.878 |
| GGAUGGGAACUACAUAAUUTT against 2310057J18Rik | inactive: -1.89 |
| GGAAAAACCAAAUUUACCATT against Pno1 | inactive: 1.34 |
| GGCAGCUUACUAAAGAUCUTT against Got1l1 | inactive: 1.41 |
| GGAGUUUCUGUUUAACAUGTT against Hoxa9 | inactive: 1.04 |
| CGUGCUGUUUGACGGAGUGTT against Eid3 | inactive: 0.776 |
| GGAAAUGACCUACGAAGAATT against Pfkfb4 | inactive: -1.26 |
| GGAACAGCAGCACUCAGACTT against Insyn1 | inactive: 0.1 |
| GCAAGUUCAACCUCAAGGGTT against Zfp710 | inactive: 1.45 |
| GGAAGUUGAAUACAUUGUCTT against Arntl | inactive: 0.127 |
| GGCUUUCGACCAGUUUUUCTT against Hoxa11 | inactive: 0.252 |
| AGGUGUCUACUUUCCAGCCTT against Slc17a9 | inactive: -0.744 |
| GGGUAGUUAUGACUAAAUUTT against Etl4 | inactive: 1.31 |
| GGAUGCUCAAAAUCUACAATT against H2-M11 | inactive: 1.17 |
| GCCUUUCUGAGGGAUUUUGTT against Eif1ad | inactive: -1.81 |
| GCAGCAUGCCUGAAUAUUUTT against Prcp | inactive: 0.172 |
| GGAGAAAUACUCAGAAAUGTT against Mael | inactive: -1.64 |
| GCUGAAUUGCUGGUAGAUUTT against Gtf3c3 | inactive: -0.00285 |
| CCUUCUUUCGCGUAUGCCUTT against Dll1 | inactive: -0.389 |
| GGAAGCAUUCCAAUGGUAGTT against Cyp2c39 | inactive: -0.532 |
| CGAACAGGAGAGCCUUAUUTT against H2-DMb2 | inactive: -0.416 |

A second format for some results above:
Sequence	z-score
AGGUGUCUACUUUCCAGCCTT against Slc17a9	inactive: -0.744
GGGUAGUUAUGACUAAAUUTT against Etl4	inactive: 1.31

Given field by field: entries from further up
GGAGGAUUAUCACAAGUCCTT against Anxa6
  z-score: inactive: 0.886
GGACUUAGCACCCUCCUAATT against Tnfsf15
  z-score: inactive: -0.762

Source: PubChem BioAssay AID1508600 (Functional Genomics Laboratory (NCATS/FGL), 2020)
